From patent US6177557 come the findings set out here.

For data set [1], the system named is thrombin (alpha) (human). In words: filter binding. The settings on record: 2'-NH2 pyrimidines, significant drop in binding versus unmodified RNA, purified native protein, protein details: Sigma, Enzyme Research Laboratories, label: ….
For data set [2], the target named is basic fibroblast growth factor (bFGF) (UniProt P09038). Briefly: competition with a labelled probe. As to conditions: purified recombinant protein, dose not given here.
Data set [3] has as its system thrombin (alpha) (human). Briefly: inhibition of the protein. The settings on record: inhibits clotting; purified native protein; protein details: Sigma, Enzyme Research Laboratories; single-stranded DNA; variant of 60-18; dose not given here.
Data set [4] concerns the target basic fibroblast growth factor (bFGF) (UniProt P09038). In words: activity in cells. As to conditions: 2'-NH2 pyrimidines; reduced bFGF-induced rat corneal vascular ingrowth (day 14 score 900 vs 1528); purified recombinant protein; dose not given here.

For some of these results: Weaker means in comparison with the reference protein, sequence or condition of that experiment. For some of these results: The exact form of at least one protein or probe is not confirmed.

Regarding “AGAUGCCUGUCGAGCAUGCUGCAUCCGGAUCGAAGUUAGUAGGCCGAGGUGGUAGCUAAACAGCUUUGUCGACGGG [2'-NH2 RNA 16]”, the binding result in the data set with thrombin (alpha) (human) [1] (variant of thrombin Class I RNA 16) is “binds more weakly”. “AGAUGCCUGUCGAGCAUGCUGGUGCGGCUUUGGGCGCCGUGCUUGACGUAGCUAAACAGCUUUGUCGACGGG [2'-NH2 RNA 27]”: the binding result in the data set with thrombin (alpha) (human) [1] (variant of thrombin Class II RNA 27) is “binds more weakly”. As to “AGGCCAGGGCTATGCAAATCGCGGCGCCTATGGCC [D12t2]”, in data set [2] (inhibits low- and high-affinity receptor binding, nanomolar range, single-stranded DNA, variant of D12), the “functional effect of the aptamer” value is “active”. On to “CAGTCCGTGGTAGGGCAGGTTGGGGTGACTTCGTGGAA [60-18(38)]”, for which, in the data set on thrombin (alpha) (human) [3], the “functional effect of the aptamer” value is reported as “active”. In the case of CGAGGAGCTTTAGCGCCACAGGTT [m234t2], the “functional effect of the aptamer” value in data set [2] (inhibits low- and high-affinity receptor binding, nanomolar range, single-stranded DNA, variant of m234) is reported as “active”.

In the case of “GCGGGGCTACGTACCGGGGCTTTGTAAAACCCCGC [M225t3]”, the “functional effect of the aptamer” value in data set [2] (inhibits low- and high-affinity receptor binding, nanomolar range, single-stranded DNA, variant of M225) is “active”. Turning to “GCGGGGCTATGTAAATTACTGCTGTACTACGCATC [M19t2]”, the “functional effect of the aptamer” value in data set [2] (inhibits low- and high-affinity receptor binding, nanomolar range, single-stranded DNA, variant of M19) is “active”. Regarding “GCGGGGCTCTGCAAAGGACACAGGTCCTACGCATCAG [M235t2]”, the “functional effect of the aptamer” value in data set [2] (inhibits low- and high-affinity receptor binding, nanomolar range, single-stranded DNA, variant of M235) is listed as “active”. As to “GGGAGACAAGAAUAACGCUCAAGUAGACUAAUGUGUGGAAGACAGCGGGUGGUUCGACAGGAGGCUCACAACAGGC [2'-NH2 21A]”, in data set [4], the “functional effect of the aptamer” value is reported as “active”. Consider “GGUGUGUGGAAGACAGCGGGUGGUUC [2'-NH2 21A-t]”, for which the “functional effect of the aptamer” value in data set [2] (2'-NH2 pyrimidines, most effective inhibitor of bFGF receptor binding, variant of 2'-NH2 21A) is on record as “active”.
